Data as given in PubChem BioAssay AID1259308 (NCATS, 2017)
Aim: 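Candidate targets for better recombinant protein yield in mammalian cells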 (primary screen). System: human HEK293 embryonic kidney cells stably expressing firefly luciferase (HEK-CMV-Luc2-Hygro). Reagent: single siRNA against human genes, 0.8 pmol siRNA per well. Duration: 72 h. Measured: 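Luciferase light (ONE-Glo) measured on one replicate plate set and viability (CellTiter-Glo) on the other, scaled to a negative control siRNA, with robust z-scores and luciferase per cell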. Direction: total luciferase, z-score and total luciferase, % of control: higher = more reporter protein produced. Rule for the call: 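Active when the median/MAD z-score for overall luciferase is greater than 3; a gene was taken forward for validation with new siRNAs if at least two of its three siRNAs passed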. Calls: active = raised luciferase; inactive = no rise.
The deposit covers about 59,000 reagents; below is a part drawn at random. About 1,510 of them (2.6%) were called active. 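Calls use total luciferase alone and ignore viability, so some active siRNAs may act by altering cell number.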 The numbers tell different reagents against one gene apart. Further read-outs or replicates are left out here.

Knock-down of KLHL9 #1 resulted in: total luciferase, z-score -0.385; total luciferase, % of control 74.2; inactive. KLHL9 #2 showed total luciferase, z-score 1.55; total luciferase, % of control 113; inactive. Against KLHL9 #3, the entry reads total luciferase, z-score -1.01; total luciferase, % of control 61.8; inactive. With knock-down of PPIL3 #1, the screen gave total luciferase, z-score 3.16; total luciferase, % of control 145; active. PPIL3 #2 scored total luciferase, z-score 0.416; total luciferase, % of control 90.2; inactive. Depletion of PPIL3 #3 resulted in: total luciferase, z-score 0.734; total luciferase, % of control 96.5; inactive.

Entries above whose gene name starts with P or p (3):
PPIL3 #1 → total luciferase, z-score = 3.16; total luciferase, % of control = 145; call = active
PPIL3 #2 → total luciferase, z-score = 0.416; total luciferase, % of control = 90.2; call = inactive
PPIL3 #3 → total luciferase, z-score = 0.734; total luciferase, % of control = 96.5; call = inactive

Next reagents follow:
PTPA #1 gave total luciferase, z-score 7.12; total luciferase, % of control 223; active. PTPA #2 scored total luciferase, z-score 0.315; total luciferase, % of control 88.2; inactive. PTPA #3 showed total luciferase, z-score 1.61; total luciferase, % of control 114; inactive. Silencing of TMEM147 #1 came out at: total luciferase, z-score 2.74; total luciferase, % of control 136; inactive. TMEM147 #2 showed total luciferase, z-score -0.932; total luciferase, % of control 63.4; inactive. After knock-down of TMEM147 #3, the screen gave total luciferase, z-score -1.15; total luciferase, % of control 58.9; inactive.
